The chains behind the UniProt entries cited, without tags or fusion partners. Where a name states a change or a piece, a line headed by the entry shows the natural chain unless it says otherwise.
UniProt P49023: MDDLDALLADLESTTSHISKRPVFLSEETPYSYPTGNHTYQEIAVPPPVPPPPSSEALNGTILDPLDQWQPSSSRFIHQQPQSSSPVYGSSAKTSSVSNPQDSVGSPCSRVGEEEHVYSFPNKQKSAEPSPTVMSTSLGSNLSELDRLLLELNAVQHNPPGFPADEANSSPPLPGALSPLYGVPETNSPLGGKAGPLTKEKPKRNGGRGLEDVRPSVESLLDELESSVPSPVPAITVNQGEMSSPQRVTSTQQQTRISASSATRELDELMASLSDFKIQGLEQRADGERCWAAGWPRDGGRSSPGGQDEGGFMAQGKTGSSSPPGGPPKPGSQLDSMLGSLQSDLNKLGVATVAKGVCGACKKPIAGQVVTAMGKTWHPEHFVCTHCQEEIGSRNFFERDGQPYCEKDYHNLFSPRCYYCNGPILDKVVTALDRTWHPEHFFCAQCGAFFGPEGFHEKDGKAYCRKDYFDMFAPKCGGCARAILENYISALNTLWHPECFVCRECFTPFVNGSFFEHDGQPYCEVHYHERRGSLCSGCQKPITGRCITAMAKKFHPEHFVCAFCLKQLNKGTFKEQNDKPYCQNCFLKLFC
UniProt Q9UQE7: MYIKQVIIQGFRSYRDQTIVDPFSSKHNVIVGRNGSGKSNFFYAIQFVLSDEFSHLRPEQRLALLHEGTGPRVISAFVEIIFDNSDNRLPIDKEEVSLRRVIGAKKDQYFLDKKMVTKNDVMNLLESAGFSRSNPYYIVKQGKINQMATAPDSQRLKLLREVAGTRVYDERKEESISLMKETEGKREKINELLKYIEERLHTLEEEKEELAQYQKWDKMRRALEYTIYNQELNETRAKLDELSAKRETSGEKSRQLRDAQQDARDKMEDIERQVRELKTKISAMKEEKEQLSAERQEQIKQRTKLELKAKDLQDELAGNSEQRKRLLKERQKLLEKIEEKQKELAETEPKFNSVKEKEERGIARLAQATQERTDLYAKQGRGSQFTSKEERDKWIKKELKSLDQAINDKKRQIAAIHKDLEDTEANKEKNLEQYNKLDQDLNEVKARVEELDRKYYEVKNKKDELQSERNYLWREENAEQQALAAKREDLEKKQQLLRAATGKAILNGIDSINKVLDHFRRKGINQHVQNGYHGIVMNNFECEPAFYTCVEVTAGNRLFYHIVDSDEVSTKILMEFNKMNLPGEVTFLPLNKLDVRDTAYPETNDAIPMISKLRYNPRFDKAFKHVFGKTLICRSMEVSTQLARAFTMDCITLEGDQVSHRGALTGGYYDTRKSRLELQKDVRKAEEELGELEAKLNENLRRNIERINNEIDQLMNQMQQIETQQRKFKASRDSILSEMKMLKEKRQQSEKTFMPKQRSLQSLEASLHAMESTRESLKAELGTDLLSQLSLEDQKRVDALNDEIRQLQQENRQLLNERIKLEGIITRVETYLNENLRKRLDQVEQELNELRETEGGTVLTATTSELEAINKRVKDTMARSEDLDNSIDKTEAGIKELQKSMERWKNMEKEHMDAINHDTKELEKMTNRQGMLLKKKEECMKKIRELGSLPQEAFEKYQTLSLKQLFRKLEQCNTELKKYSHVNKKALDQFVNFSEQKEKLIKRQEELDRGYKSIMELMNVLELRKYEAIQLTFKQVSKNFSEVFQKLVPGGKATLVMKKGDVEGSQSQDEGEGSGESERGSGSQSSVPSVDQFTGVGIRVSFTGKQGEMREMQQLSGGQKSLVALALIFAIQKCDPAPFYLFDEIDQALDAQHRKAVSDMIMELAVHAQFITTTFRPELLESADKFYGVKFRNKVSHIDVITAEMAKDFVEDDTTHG

According to publication PMC4541046:

B1: structural maintenance of chromosomes 1A protein (SMC1A) (protein, UniProt Q14683 1-1233)
chain: MGFLKLIEIENFKSYKGRQIIGPFQRFTAIIGPNGSGKSNLMDAISFVLGEKTSNLRVKTLRDLIHGAPVGKPAANRAFVSMVYSEEGAEDRTFARVIVGGSSEYKINNKVVQLHEYSEELEKLGILIKARNFLVFQGAVESIAMKNPKERTALFEEISRSGELAQEYDKRKKEMVKAEEDTQFNYHRKKNIAAERKEAKQEKEEADRYQRLKDEVVRAQVQLQLFKLYHNEVEIEKLNKELASKNKEIEKDKKRMDKVEDELKEKKKELGKMMREQQQIEKEIKEKDSELNQKRPQYIKAKENTSHKIKKLEAAKKSLQNAQKHYKKRKGDMDELEKEMLSVEKARQEFEERMEEESQSQGRDLTLEENQVKKYHRLKEEASKRAATLAQELEKFNRDQKADQDRLDLEERKKVETEAKIKQKLREIEENQKRIEKLEEYITTSKQSLEEQKKLEGELTEEVEMAKRRIDEINKELNQVMEQLGDARIDRQESSRQQRKAEIMESIKRLYPGSVYGRLIDLCQPTQKKYQIAVTKVLGKNMDAIIVDSEKTGRDCIQYIKEQRGEPETFLPLDYLEVKPTDEKLRELKGAKLVIDVIRYEPPHIKKALQYACGNALVCDNVEDARRIAFGGHQRHKTVALDGTLFQKSGVISGGASDLKAKARRWDEKAVDKLKEKKERLTEELKEQMKAKRKEAELRQVQSQAHGLQMRLKYSQSDLEQTKTRHLALNLQEKSKLESELANFGPRINDIKRIIQSREREMKDLKEKMNQVEDEVFEEFCREIGVRNIREFEEEKVKRQNEIAKKRLEFENQKTRLGIQLDFEKNQLKEDQDKVHMWEQTVKKDENEIEKLKKEEQRHMKIIDETMAQLQDLKNQHLAKKSEVNDKNHEMEEIRKKLGGANKEMTHLQKEVTAIETKLEQKRSDRHNLLQACKMQDIKLPLSKGTMDDISQEEGSSQGEDSVSGSQRISSIYAREALIEIDYGDLCEDLKDAQAEEEIKQEMNTLQQKLNEQQSVLQRIAAPNMKAMEKLESVRDKFQETSDEFEAARKRAKKAKQAFEQIKKERFDRFNACFESVATNIDEIYKALSRNSSAQAFLGPENPEEPYLDGINYNCVAPGKRFRPMDNLSGGEKTVAALALLFAIHSYKPAPFFVLDEIDAALDNTNIGKVANYIKEQSTCNFQAIVISLKEEFYTKAESLIGVYPEQGDCVISKVLTFDLTKYPDANPNPNEQ
B2: mediator subunit 23 (MED23) (protein, UniProt Q9ULK4 1-1368)
chain: METQLQSIFEEVVKTEVIEEAFPGMFMDTPEDEKTKLISCLGAFRQFWGGLSQESHEQCIQWIVKFIHGQHSPKRISFLYDCLAMAVETGLLPPRLVCESLINSDTLEWERTQLWALTFKLVRKIIGGVDYKGVRDLLKVILEKILTIPNTVSSAVVQQLLAAREVIAYILERNACLLPAYFAVTEIRKLYPEGKLPHWLLGNLVSDFVDTFRPTARINSICGRCSLLPVVNNSGAICNSWKLDPATLRFPLKGLLPYDKDLFEPQTALLRYVLEQPYSRDMVCNMLGLNKQHKQRCPVLEDQLVDLVVYAMERSETEEKFDDGGTSQLLWQHLSSQLIFFVLFQFASFPHMVLSLHQKLAGRGLIKGRDHLMWVLLQFISGSIQKNALADFLPVMKLFDLLYPEKEYIPVPDINKPQSTHAFAMTCIWIHLNRKAQNDNSKLQIPIPHSLRLHHEFLQQSLRNKSLQMNDYKIALLCNAYSTNSECFTLPMGALVETIYGNGIMRIPLPGTNCMASGSITPLPMNLLDSLTVHAKMSLIHSIATRVIKLAHAKSSVALAPALVETYSRLLVYMEIESLGIKGFISQLLPTVFKSHAWGILHTLLEMFSYRMHHIQPHYRVQLLSHLHTLAAVAQTNQNQLHLCVESTALRLITALGSSEVQPQFTRFLSDPKTVLSAESEELNRALILTLARATHVTDFFTGSDSIQGTWCKDILQTIMSFTPHNWASHTLSCFPGPLQAFFKQNNVPQESRFNLKKNVEEEYRKWKSMSNENDIITHFSMQGSPPLFLCLLWKMLLETDHINQIGYRVLERIGARALVAHVRTFADFLVYEFSTSAGGQQLNKCIEILNDMVWKYNIVTLDRLILCLAMRSHEGNEAQVCYFIIQLLLLKPNDFRNRVSDFVKENSPEHWLQNDWHTKHMNYHKKYPEKLYFEGLAEQVDPPVQIQSPYLPIYFGNVCLRFLPVFDIVIHRFLELLPVSKSLETLLDHLGGLYKFHDRPVTYLYNTLHYYEMHLRDRAFLKRKLVHAIIGSLKDNRPQGWCLSDTYLKCAMNAREENPWVPDDTYYCRLIGRLVDTMAGKSPGPFPNCDWRFNEFPNPAAHALHVTCVELMALAVSGKEVGNALLNVVLKSQPLVPRENITAWMNAIGLIITALPEPYWIVLHDRIVSVISSPSLTSETEWVGYPFRLFDFTACHQSYSEMSCSYTLALAHAVWHHSSIGQLSLIPKFLTEVLLPIVKTEFQLLYVYHLVGPFLQRFQQERTRCMIEIGVAFYDMLLNVDQCSTHLNYMDPICDFLYHMKYMFTGDSVKEQVEKIICNLKPALKLRLRFITHISKMEPAAVPPQAMNSGSPAPQSNQVPVSLPVTQ
B3: CCCTC-binding factor (CTCF) (protein, UniProt P49711 1-727)
chain: MEGDAVEAIVEESETFIKGKERKTYQRRREGGQEEDACHLPQNQTDGGEVVQDVNSSVQMVMMEQLDPTLLQMKTEVMEGTVAPEAEAAVDDTQIITLQVVNMEEQPINIGELQLVQVPVPVTVPVATTSVEELQGAYENEVSKEGLAESEPMICHTLPLPEGFQVVKVGANGEVETLEQGELPPQEDPSWQKDPDYQPPAKKTKKTKKSKLRYTEEGKDVDVSVYDFEEEQQEGLLSEVNAEKVVGNMKPPKPTKIKKKGVKKTFQCELCSYTCPRRSNLDRHMKSHTDERPHKCHLCGRAFRTVTLLRNHLNTHTGTRPHKCPDCDMAFVTSGELVRHRRYKHTHEKPFKCSMCDYASVEVSKLKRHIRSHTGERPFQCSLCSYASRDTYKLKRHMRTHSGEKPYECYICHARFTQSGTMKMHILQKHTENVAKFHCPHCDTVIARKSDLGVHLRKQHSYIEQGKKCRYCDAVFHERYALIQHQKSHKNEKRFKCDQCDYACRQERHMIMHKRTHTGEKPYACSHCDKTFRQKQLLDMHFKRYHDPNFVPAAFVCSKCGKTFTRRNTMARHADNCAGPDGVEGENGGETKKSKRGRKRKMRSKKEDSSDSENAEPDLDDNEDEEEPAVEIEPEPEPQPVTPAPPPAKKRRGRPPGRTNQPKQNQPTAIIQVEDQNTGAIENIIVEVKKEPDAEPAEGEEEEAQPAATDAPNGDLTPEMILSMMDR

biological target: EGFP–STrEP-paxillin (PXN) (human) (UniProt P49023); experiment: pull-down; Strep-Tactin sepharose beads added to the lysate of HEK293 cells stably expressing STrEP-EGFP–PXN or STrEP-EGFP (control), 2 h; lysis buffer 20 mM HEPES-KOH pH 7.40, 5 mM CH3COOK, 150 mM NaCl, 0.5 mM MgCl2, 0.5 mM DTT, 0.5% Triton X-100; eluted with 2.5 mM desthiobiotin; pull-down fractions immunoblotted

Row | Molecule | binding
1 | structural maintenance of chromosomes 3 protein (SMC3) (from UniProt Q9UQE7 1-1217) | binds
2 | B1 | binds
3 | B2 | binds
4 | B3 | no binding

No constants are given. Whether binding was seen depends on the method and setting. Binding seen in cells or lysates may run through a third protein. Binding calls can cover weak binding; strength is not graded here.
